Data: US20120315276A1
These are yes or no findings as the source states them, for the method shown. Some results given as binding are weak or reduced against the parent protein; the word gives no strength. One block for each binder: values may come before it.

Columns and labels:
[1] = target: T1, Rat prolactin receptor (PRLR) on rat lymphoma cell line Nb2 (rat) (UniProt P05710); assay: Statement in Example 6 (Nb2-11 rat lymphoma cells)
T1 sequence (looked up): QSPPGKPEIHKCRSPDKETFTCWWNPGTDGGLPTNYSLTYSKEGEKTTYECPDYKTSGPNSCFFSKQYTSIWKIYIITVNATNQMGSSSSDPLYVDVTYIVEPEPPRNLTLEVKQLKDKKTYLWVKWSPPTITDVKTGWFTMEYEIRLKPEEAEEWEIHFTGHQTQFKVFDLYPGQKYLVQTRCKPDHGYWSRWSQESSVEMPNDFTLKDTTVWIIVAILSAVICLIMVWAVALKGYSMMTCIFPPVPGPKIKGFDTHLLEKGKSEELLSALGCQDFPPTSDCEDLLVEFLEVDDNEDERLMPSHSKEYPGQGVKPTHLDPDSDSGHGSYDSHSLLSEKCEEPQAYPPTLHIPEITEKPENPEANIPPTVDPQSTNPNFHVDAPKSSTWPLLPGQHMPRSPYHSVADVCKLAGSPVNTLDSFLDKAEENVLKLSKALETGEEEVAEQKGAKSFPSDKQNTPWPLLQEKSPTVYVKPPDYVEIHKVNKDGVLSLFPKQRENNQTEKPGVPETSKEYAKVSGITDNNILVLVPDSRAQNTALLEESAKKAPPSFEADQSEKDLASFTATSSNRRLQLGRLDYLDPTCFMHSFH

[2] = target: T2, Human prolactin receptor (PRLR) on cells (T47D; HEK293 or Ba/F cells stably transfected with human PRLR) (human) (UniProt P16471); assay: FACS on HEK293 cells stably expressing human PRLR, single antibody concentration 0.37 µg/ml, PE-conjugated goat anti-human IgG detection, compared with parental HEK293 cells
T2 sequence (looked up): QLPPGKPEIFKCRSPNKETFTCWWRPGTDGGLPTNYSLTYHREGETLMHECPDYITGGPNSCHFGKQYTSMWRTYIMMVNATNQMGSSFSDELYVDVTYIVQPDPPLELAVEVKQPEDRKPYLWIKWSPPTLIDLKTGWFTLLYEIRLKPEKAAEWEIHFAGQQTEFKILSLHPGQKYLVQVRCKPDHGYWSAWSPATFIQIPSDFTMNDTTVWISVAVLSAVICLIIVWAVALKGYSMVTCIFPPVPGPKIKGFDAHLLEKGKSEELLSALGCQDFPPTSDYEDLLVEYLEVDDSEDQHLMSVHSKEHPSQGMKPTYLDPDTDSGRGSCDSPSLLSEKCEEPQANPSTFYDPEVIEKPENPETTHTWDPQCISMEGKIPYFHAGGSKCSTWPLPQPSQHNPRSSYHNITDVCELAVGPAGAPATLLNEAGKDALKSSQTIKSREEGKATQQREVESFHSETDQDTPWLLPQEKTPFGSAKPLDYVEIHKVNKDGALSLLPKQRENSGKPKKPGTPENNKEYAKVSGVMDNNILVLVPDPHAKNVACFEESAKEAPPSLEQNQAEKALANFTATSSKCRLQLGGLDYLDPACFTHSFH

[3] = target: T3, Murine prolactin receptor (PRLR) on cells (HEK293 or Ba/F cells stably transfected with murine PRLR) (mouse) (UniProt Q08501); assay: Flow cytometry at a fixed concentration on HEK293 cells stably expressing murine PRLR
T3 sequence (looked up): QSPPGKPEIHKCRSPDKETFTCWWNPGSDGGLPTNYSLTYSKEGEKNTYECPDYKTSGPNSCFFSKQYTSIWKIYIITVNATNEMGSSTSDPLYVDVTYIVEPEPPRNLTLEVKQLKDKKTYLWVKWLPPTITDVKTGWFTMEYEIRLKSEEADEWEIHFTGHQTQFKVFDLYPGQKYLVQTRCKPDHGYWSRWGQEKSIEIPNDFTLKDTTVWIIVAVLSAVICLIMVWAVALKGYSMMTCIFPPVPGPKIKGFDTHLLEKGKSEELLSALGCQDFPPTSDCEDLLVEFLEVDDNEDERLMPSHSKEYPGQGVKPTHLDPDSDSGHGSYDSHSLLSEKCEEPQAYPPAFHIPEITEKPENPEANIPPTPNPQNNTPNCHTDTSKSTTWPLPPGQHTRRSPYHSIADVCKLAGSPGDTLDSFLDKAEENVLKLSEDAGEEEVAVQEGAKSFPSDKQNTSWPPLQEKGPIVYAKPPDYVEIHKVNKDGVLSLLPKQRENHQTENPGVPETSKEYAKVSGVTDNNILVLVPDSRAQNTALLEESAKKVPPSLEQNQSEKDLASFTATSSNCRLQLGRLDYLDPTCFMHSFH

[4] = target: T3, Murine prolactin receptor (PRLR) on cells (HEK293 or Ba/F cells stably transfected with murine PRLR) (mouse); assay: FACS on HEK293 cells stably expressing murine PRLR, single antibody concentration 0.37 µg/ml, PE-conjugated goat anti-human IgG detection, compared with parental HEK293 cells
[5] = target: T2, Human prolactin receptor (PRLR) on cells (T47D; HEK293 or Ba/F cells stably transfected with human PRLR) (human); assay: Flow cytometry at a fixed concentration on HEK293 cells stably expressing human PRLR

binding [1]: binds
B1: XHA06.642 (Novartis, WO2008/22295; IgG1) (antibody, V domains shown)
VH: EVQLVESGGDLVKPGGSLKLSCAVSGFTFSSYGMSWVRQTPDKRLEWVATVSSGGTYTYYPDSVKGRFTISRDNAKNTLYLQMSSLKSEDSAMYYCARHRGNYYATYYYAMDYWGQGTSVTVSS
VL: DIVLTQSPASLAVSLGQGATISCRASKSVSTSGYTYMHWYQQKPGQPPKLLIYLASNLESGVPARFSGSGSGTDFTLNIHPVEEEDAATYYCQHSGELPPSFGGGTKLEIKR

binding [2]: binds | binding [3]: binds | binding [4]: binds | binding [5]: binds
B2: 001-E06 (human IgG1) (antibody, V domains shown)
VH: QVELLESGGGLVQPGGSLRLSCAASGFTFSSYWMSWVRQAPGKGLEWVSSVSDTGTDTHYADSVKGRFTISRDNSKNTLYLQMNSLRAEDTAVYYCAKTPLAYSSGWYYFDYWGQGTLVTVSS
VL: DIVLTQPPSASGTPGQRVTISCSGSSSNIGSNTVNWYQQLPGTAPKLLIYRNYQRPSGVPDRFSGSKSGTSASLAISGLRSEDEADYYCQSYDSSLSGSVFGGGTKLTVLG
